In US20250304677A1:
Where a chain is given by its changes, count along the chain named. Names and notes keep the numbering of the source. Results are given in words; binding and its absence hold for the method and conditions named. Some entries that bind do so weakly or less than the wild type. For part of these data: Sequences can lack the tags named with a protein.

Protein sequences, listed by entry. Tags and fused reporters are not part of them. Lines headed by an entry give the natural chain unless they say otherwise; changes in a name come on top. Chains listed by the source or under a name are the forms on record and can include a tag or linker.
UniProt P35846: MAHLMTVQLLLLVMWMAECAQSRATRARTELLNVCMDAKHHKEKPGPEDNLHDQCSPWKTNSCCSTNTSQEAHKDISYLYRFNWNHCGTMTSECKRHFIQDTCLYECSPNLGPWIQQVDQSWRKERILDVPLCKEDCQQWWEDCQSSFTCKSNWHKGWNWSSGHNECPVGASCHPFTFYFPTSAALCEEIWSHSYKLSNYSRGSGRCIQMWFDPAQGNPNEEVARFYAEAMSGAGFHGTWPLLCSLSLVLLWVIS
UniProt P15328: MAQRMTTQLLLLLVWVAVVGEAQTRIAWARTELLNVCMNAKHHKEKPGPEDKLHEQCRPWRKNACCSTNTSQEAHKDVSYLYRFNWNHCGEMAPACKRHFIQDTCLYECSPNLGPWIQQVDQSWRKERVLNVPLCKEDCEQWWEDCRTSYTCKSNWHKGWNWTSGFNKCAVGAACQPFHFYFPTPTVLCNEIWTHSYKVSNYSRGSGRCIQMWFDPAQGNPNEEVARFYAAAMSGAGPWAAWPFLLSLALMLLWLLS
rhesus monkey folate receptor alpha, recombinant (F7BP60, form named): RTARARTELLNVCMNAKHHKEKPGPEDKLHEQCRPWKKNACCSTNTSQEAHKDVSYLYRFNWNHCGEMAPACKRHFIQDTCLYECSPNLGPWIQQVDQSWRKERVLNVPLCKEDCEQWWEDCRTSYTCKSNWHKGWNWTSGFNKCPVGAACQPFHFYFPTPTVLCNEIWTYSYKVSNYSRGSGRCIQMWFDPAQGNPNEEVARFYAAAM

B1: [N73A] (VHH)
VHH: EVQLVESGGGLVQPGGSLRLSCAASGSGFSGMIMGWYRQAPGKQRELVATVTSHGTTNYADSVKGRFTISRDAAKNTVYLQMNSLRPEDTAVYYCNAHFPGIYWGKGTLVTVSS
B2: [I33K] (VHH)
VHH: B1 VHH with I33K, A73N
B3: [D72Y] (VHH)
VHH: B1 VHH with D72Y, A73N
B4: [S30V] (VHH)
VHH: B1 VHH with S30V, A73N
B5: [G26D] (VHH)
VHH: B1 VHH with G26D, A73N
B6: [K75V] (VHH)
VHH: B1 VHH with A73N, K75V
B7: [T50S] (VHH)
VHH: B1 VHH with T50S, A73N
B8: [N58K] (VHH)
VHH: B1 VHH with N58K, A73N
B9: [K75D] (VHH)
VHH: B1 VHH with A73N, K75D
B10: [G28K] (VHH)
VHH: B1 VHH with G28K, A73N
B11: [I33R] (VHH)
VHH: B1 VHH with I33R, A73N
B12: [V51T] (VHH)
VHH: B1 VHH with V51T, A73N
B13: [S30E] (VHH)
VHH: B1 VHH with S30E, A73N
B14: [S30D] (VHH)
VHH: B1 VHH with S30D, A73N
B15: [G26N] (VHH)
VHH: B1 VHH with G26N, A73N
B16: [T50V] (VHH)
VHH: B1 VHH with T50V, A73N
B17: [N73Q] (VHH)
VHH: B1 VHH with A73Q
B18: [V51Q] (VHH)
VHH: B1 VHH with V51Q, A73N
B19: [F29K] (VHH)
VHH: B1 VHH with F29K, A73N
B20: [G26Q] (VHH)
VHH: B1 VHH with G26Q, A73N
B21: P01500004: 2HF042(Q1E, Q5V, Q108L)-HIS6 (VHH)
VHH: B1 VHH with P14A, A40V, A73N, Y79L, R86K
B22: VHH 2HFO19 (family 1) (VHH)
VHH: QVQLQESGGGLVQPGGSLRVSCAASGFPFSTVYMSWVRQAPGKGLEWVSGINNDGGVIDYADSVKGRFTISRDNAKNTLYLQLNSLKPEDTALYFCARGRSFVATLSSSLRGQGTQVTVSS
B23: VHH 2HFO42 (family 3) (VHH)
VHH: B1 VHH with E1Q, V5Q, P14A, A40V, A73N, Y79L, R86K, L109Q
B24: VHH 3MFR60 (family 10) (VHH)
VHH: QVQLQESGGGLVQAGGSLRVSCAASGIIFSMNGMGWFRQAPGKQRELVASITSGGSTKYADSVKGRFTISRDNAKNTVYLQMNSLKPEDTAVYYCNIQFGSRWSTYWGQGTQVTVSS
B25: P01500005: 2MFR67(Q1E, Q5V, Q108L)-HIS6 (VHH)
VHH: B1 VHH with P14A, D72E, A73D, A74S, Y79L, R86K
B26: VHH 2MFR32 (VHH)
VHH: B22 VHH with P14A, N53S, D54N, K76N, R98K, S101A, L106M, S107P
B27: P01500003: 2HF019(Q1E, Q5V, Q108L)-HIS6 (VHH)
VHH: B22 VHH with Q1E, Q5V, Q116L

What follows are binders tested against mouse folate receptor alpha (mFRα), recombinant protein (mouse) (UniProt P35846) (assay: BLI off-rate screening, crude periplasmic extract, biotinylated mouse FRα on streptavidin biosensors).

| binding | Binder |
| --- | --- |
| binds | B1 |
| binds | B2 |
| binds | B3 |
| binds | B4 |
| binds | B5 |
| binds | B6 |
| binds | B7 |
| binds | B8 |
| binds | B9 |
| binds | B10 |
| binds | B11 |
| binds | B12 |
| binds | B13 |
| binds | B14 |
| binds | B15 |
| binds | B16 |
| binds | B17 |
| binds | B18 |
| binds | B19 |
| binds | B20 |

These binders were tested against recombinant human FRα (29-234), deglycosylated, for co-crystallization (human) (UniProt P15328) (assay: co-crystal structure, 2.23 Å).

| binding | Binder |
| --- | --- |
| binds | B21 |

These binders were tested against human FOLR1/2 chimera 1c (replacing fragment 51-64) (human) (UniProt P15328) (assay: flow cytometry, transfected HEK293T cells).

| binding | Binder |
| --- | --- |
| binds | B22 |
| binds | B23 |
| binds | B24 |

These binders were tested against recombinant human FRα (29-234), deglycosylated, for co-crystallization (human) (UniProt P15328) (assay: co-crystal structure, 3.09 Å).

| binding | Binder |
| --- | --- |
| binds | B25 |

These binders were tested against rhesus monkey folate receptor alpha, recombinant (rhesus monkey) (UniProt F7BP60) (assay: ELISA).

| binding | Binder |
| --- | --- |
| binds | B23 |

These binders were tested against mouse folate receptor alpha (mFRα), recombinant protein (mouse) (UniProt P35846) (assay: BLI tandem binning on biotinylated mouse FRα).

| binding | Binder |
| --- | --- |
| binds | B26 |

What follows are binders tested against recombinant human FRα (29-234), deglycosylated, for co-crystallization (human) (UniProt P15328) (assay: co-crystal structure, 2.8 Å).

| binding | Binder |
| --- | --- |
| binds | B27 |

The binders below were run against human folate receptor alpha (hFRα), recombinant protein (human) (UniProt P15328) (assay: BLI off-rate screening, crude periplasmic extract, biotinylated human FRα on streptavidin biosensors).

| binding | Binder |
| --- | --- |
| binds | B1 |
| binds | B2 |
| binds | B3 |
| binds | B4 |
| binds | B5 |
| binds | B6 |
| binds | B7 |
| binds | B8 |
| binds | B9 |
| binds | B10 |
| binds | B11 |
| binds | B12 |
| binds | B13 |
| binds | B14 |
| binds | B15 |
| binds | B16 |
| binds | B17 |
| binds | B18 |
| binds | B19 |
| binds | B20 |
